B1: C2G4 scFv 단백질 (scFv)
scFv: EVQLLESGGGLVQPGGSLRLSCAASGFTFSNYAMSWVRQAPGKGLEWVSGIPPDSGSKYYADSVRGRFTVSRDNSKNTLYLQMNSLRAEDTAVYYCAKNMLSFDYWGQGTLVTVSSGGGGSGGGGSGGGGSQSVLTQPPSASGTPGQRVTISCTGSSSNIGSNAVSWYQQLPGTAPKLLIYYNSKRPSGVPDRFSGSKSGTSASLAISGLRSEDEADYYCGSWDPSLNGYVFGGGTKVTVLG
B2: MS501 scFv 단백질 (scFv)
scFv: EVQLLESGGGLVQPGGSLRLSCAASGFTFSNYAMSWVRQAPGKGLEWVSGIYPDSGSTYYADSVKGRFTISRDNSKNTLYLQMNSLRAEDTAVYYCARNIYTFDYWGQGTLVTVSSGGGGSGGGGSGGGGSQSVLTQPPSASGTPGQRVTISCSGSSSNIGSNAVSWYQQLPGTAPKLLIYYNNQRPSGVPDRFSGSKSGTSASLAISGLRSEDEADYYCGSWDSSLSGYVFGGGTKLTVLG
B3: MS503 scFv 단백질 (scFv)
scFv: EVQLLESGGGLVQPGGSLRLSCAASGFTFSNYAMSWVRQAPGKGLEWVSSIYPGDGSTYYADSVKGRFTISRDNSKNTLYLQMNSLRAEDTAVYYCAKNAFTFDYWGQGTLVTVSSGGGGSGGGGSGGGGSQSVLTQPPSASGTPGQRVTISCSGSSSNIGSNAVSWYQQLPGTAPKLLIYYNSHRPSGVPDRFSGSKSGTSASLAISGLRSEDEADYYCGTWDSSLSGYVFGGGTKLTVLG

Amino acid sequences for entries named in this document (tags omitted). A change or cut given only in a name is not applied to a line headed by its entry. Chains listed by the source or under a name are the forms on record and can include a tag or linker.
재조합 인간 메소텔린 (recombinant human mesothelin) (Q13421, form named): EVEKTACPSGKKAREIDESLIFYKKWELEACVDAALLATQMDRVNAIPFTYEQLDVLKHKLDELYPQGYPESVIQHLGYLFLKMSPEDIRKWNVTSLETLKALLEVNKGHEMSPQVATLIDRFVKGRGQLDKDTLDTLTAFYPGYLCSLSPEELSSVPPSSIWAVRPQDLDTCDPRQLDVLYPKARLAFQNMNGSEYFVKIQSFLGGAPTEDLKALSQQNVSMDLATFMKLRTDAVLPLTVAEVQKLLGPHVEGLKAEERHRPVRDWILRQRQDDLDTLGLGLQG

No constants are given. Whether binding was seen depends on the method and setting. Some results given as binding are weak or reduced against the parent protein; the word gives no strength.

The target of the experiment is 재조합 인간 메소텔린 (recombinant human mesothelin) (human) (UniProt Q13421). Kind of experiment: ELISA; scFv coated at 200 ng/ml, rhMSLN at 100 ng/ml, detection antibody and streptavidin-HRP.
For the molecule B1, the binding entry was “binds”.
The value for B2 was “binds”; that for B3 was “binds”.

(Values after patent publication KR20200090598A.)
